Structures are written as SMILES. Counter-ions that a name gives are not always drawn. The list shows a part of the results. Repeats in this data set agree poorly, so a single value says little.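 The cells were human embryonic kidney cells carrying a Renilla luciferase gene, driven by the HSV-TK promoter, on a plasmid put in briefly by transfection. This is the first-round screen of about ten thousand compounds, looking for ones that raise reporter output.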

The test system of the test is HEK 293FT. Kind of test: log relative Renilla luciferase luminescence (reporter expression vs reference, reference not stated) (log (base not stated)); higher = higher recombinant reporter expression. The conditions noted are these: 10 µM; time after transfection 48 h.
Take `CC[C@H](C)C(=O)O[C@H]1CCC=C2C=C[C@H](C)[C@H](CC[C@@H]3C[C@@H](O)CC(=O)O3)[C@H]21` [Mevastatin]: the log is -0.523.
For `Nc1cc(C(Cl)=C(Cl)Cl)c(S(N)(=O)=O)cc1S(N)(=O)=O` [Clorsulon], the log is 0.109.
Under `Clc1ccc(COC(Cn2ccnc2)c2ccc(Cl)cc2Cl)c(Cl)c1` (centres undefined) [Miconazole] stands 0.116.
Turning to `Cc1cc(=O)n(-c2ccccc2)n1C` [Antipyrine], the log is -0.0242.
Consider `NC12CC3CC(CC(C3)C1)C2` [Adamantamine fumarate], for which the log is -0.287.
Under `Cc1ccc(-c2ncc(Cl)cc2-c2ccc(S(C)(=O)=O)cc2)cn1` [Etoricoxib] stands 0.00952; under `CC1CCc2c(N3CCC(O)CC3)c(F)cc3c(=O)c(C(=O)O)cn1c23` (centres undefined) [Nadifloxacin], 0.121.
As for `C[C@@H]1NC(=O)NC1=O` [Methylhydantoin-5-(L)], the log was -0.148.
Under `CN1CCN(C2=Nc3cc(Cl)ccc3Nc3ccccc32)CC1` [Clozapine] stands 0.126; under `CN1CCc2cccc3c2[C@H]1Cc1ccc(O)c(O)c1-3` [R(-) Apomorphine hydrochloride hemihydrate], -0.132.
For `CCC(Cc1c(I)cc(I)c(N)c1I)C(=O)O` (centres undefined) [Iopanoic acid], the log is 0.0143.
For `CCC(NC(C)C)C(O)c1ccc(O)c(O)c1` (centres undefined) [Isoetharine mesylate salt] the value was 0.0875; for `C[C@@H]1[C@H](O)[C@@H](C)/C=C/C=C/C=C/C=C/C=C/C=C/C=C/[C@H](O[C@@H]2O[C@H](C)[C@@H](O)[C@H](N)[C@@H]2O)C[C@@H]2O[C@](O)(C[C@@H](O)C[C@@H](O)[C@H](O)CC[C@@H](O)C[C@@H](O)CC(=O)O[C@H]1C)C[C@H](O)[C@H]2C(=O)O` [Amphotericin B], -0.0173; for `CO[C@@]1(NC(=O)CSCC#N)C(=O)N2C(C(=O)O)=C(CSc3nnnn3C)CS[C@@H]21` [Cefmetazole sodium salt], 0.114.
Under `CC(C)NC[C@H](O)COc1ccc(CC(N)=O)cc1` [(S)-(-)-Atenolol] stands 0.112; under `CCOC(=O)C(C)(C)Oc1ccc(Cl)cc1` [Clofibrate], 0.0638.
With `CC(=O)N(O)CCCCCNC(=O)CCC(=O)N(O)CCCCCNC(=O)CCC(=O)N(O)CCCCCN` [Deferoxamine mesylate], the log is -0.482.
For `CCN[C@H]1C[C@H](C)S(=O)(=O)c2sc(S(N)(=O)=O)cc21` [Dorzolamide hydrochloride] the value was 0.123; for `O=C1Cc2cc(CCN3CCN(c4nsc5ccccc45)CC3)c(Cl)cc2N1` [Ziprasidone  Hydrochloride], -0.151.
For `CC(C)/N=c1\cc2n(-c3ccc(Cl)cc3)c3ccccc3nc-2cc1Nc1ccc(Cl)cc1` [Clofazimine] the value was -0.327; for `O=c1cc(-c2ccc(O)c(O)c2)oc2cc(O)cc(O)c12` [Luteolin], -1.49; for `CC(C)(C(=O)c1cccnc1)c1cccnc1` [Metyrapone], 0.135.
For `Nc1c(Br)cc(Br)cc1CN[C@H]1CC[C@H](O)CC1` [Ambroxol hydrochloride] the value was 0.0849.
As to `Cn1ccnc1S` [Methimazole], the log is -0.0157.
Regarding `CC(C)(Sc1cc(C(C)(C)C)c(O)c(C(C)(C)C)c1)Sc1cc(C(C)(C)C)c(O)c(C(C)(C)C)c1` [Probucol], the log was found to be 0.0496.
Take `CN1CCCC(CC2c3ccccc3Sc3ccccc32)C1` (centres undefined) [Metixene hydrochloride]: the log was -0.54.
For `COc1ccccc1N1CCN(CC(O)COc2cccc3ccccc23)CC1` (centres undefined) [Naftopidil dihydrochloride] the value was -0.232; for `CN1CCC(=C2c3ccccc3CC(=O)c3sccc32)CC1` [Ketotifen fumarate], -0.36; for `CCN1C(=O)NC(c2ccccc2)C1=O` (centres undefined) [Ethotoin], 0.119.
Regarding `CCCN(CCC)C(=O)C(CCC(=O)O)NC(=O)c1ccccc1` (centres undefined) [Proglumide], the log turned out to be 0.115.
Under `COc1ccc2c(c1)N(C[C@H](C)CN(C)C)c1ccccc1S2` [Methotrimeprazine maleat salt] stands -0.275; under `N#CC(c1ccc(Cl)cc1)c1c(Cl)cc(-n2ncc(=O)[nH]c2=O)cc1Cl` (centres undefined) [Diclazuril], -0.0681; under `COc1cc(OC)c(C(=O)CCCN2CCCC2)c(OC)c1` [Buflomedil hydrochloride], -0.0505.
Under `Cc1cc(C(=O)NNCc2ccccc2)no1` [Isocarboxazid] stands 0.0128.
Under `CO[C@H]1C[C@H](O[C@H]2[C@H](C)[C@@H](O[C@@H]3O[C@H](C)C[C@H](N(C)C)[C@H]3OC(C)=O)[C@@H](C)C[C@@]3(CO3)C(=O)[C@H](C)[C@@H](OC(C)=O)[C@@H](C)[C@@H](C)OC(=O)[C@@H]2C)O[C@@H](C)[C@@H]1OC(C)=O` [Troleandomycin] stands 0.0769; under `COc1ccc(-c2ccc(=N)n(CCCC(=O)O)n2)cc1` [Gabazine bromide], 0.0464.
As to `CC(C)(S)[C@@H](N)C(=O)O` [Penicillamine], the log came to 0.188.
With `Cn1c(=O)c2c(ncn2CC(=O)O)n(C)c1=O` [Acefylline], the log came to 0.111.
Under `CN(C)CC/C=C1\c2ccccc2CSc2ccccc21` [Dosulepin hydrochloride] stands 0.0769; under `CC(C)(Oc1ccc(Cl)cc1)C(=O)O` [Clofibric acid], 0.0523.
Under `Cn1c(=O)c2[nH]cnc2n(C)c1=O` [Aminophylline] stands -0.119.
On to `CS(=O)(=O)c1ccc(C2=C(c3ccccc3)C(=O)OC2)cc1` [Rofecoxib], for which the log was -0.0407.
Take `Cc1[nH]c(=O)c(C#N)cc1-c1ccncc1` [Milrinone]: the log worked out at 0.093.
For `CN(C)CCC=C1c2ccccc2CCc2ccccc21` [Amitryptiline hydrochloride] the value was 0.23; for `C[C@]12CC[C@H]3C(=CCc4cc(O)ccc43)[C@@H]1CCC2=O` [Equilin], -0.875.
Consider `C=C[C@H]1CN2CC[C@H]1C[C@@H]2[C@@H](O)c1ccnc2ccc(OC)cc12` [Quinidine hydrochloride monohydrate], for which the log amounted to 0.00284.
Under `Cc1cccc(C)c1NC(=O)C1CCCCN1C` (centres undefined) [Mepivacaine hydrochloride] stands 0.0769; under `Cc1ncc([N+](=O)[O-])n1CC(O)CCl` (centres undefined) [Ornidazole], 0.0554.
For `CN1C(C(=O)Nc2ccccn2)=C(O)c2sccc2S1(=O)=O` [Tenoxicam] the value was 0.0806; for `CCCCC(CC)CN1CN(CC(CC)CCCC)CC(C)(N)C1` (centres undefined) [Hexetidine], 0.0967.
For `O=C(CCCN1CCC(O)(c2ccc(Br)cc2)CC1)c1ccc(F)cc1` [Bromperidol] the value was -0.0946; for `CC(=O)c1ccc2c(c1)N(CCCN1CCC(CCO)CC1)c1ccccc1S2` [Piperacetazine], 0.106; for `CO[C@@]1(NC(=O)Cc2cccs2)C(=O)N2C(C(=O)O)=C(COC(N)=O)CS[C@@H]21` [Cefoxitin sodium salt], -0.162.
On to `COc1cc(Cc2cnc(N)nc2N)cc(OC)c1OC` [Trimethoprim], for which the log was determined as 0.109.
For `CCN(CC)CCOC(=O)C(c1ccccc1)C1CCCCC1` (centres undefined) [Drofenine hydrochloride] the value was 0.125.
Under `CC[C@H]1OC(=O)[C@H](C)[C@@H](O[C@H]2C[C@@](C)(OC)[C@@H](O)[C@H](C)O2)[C@H](C)[C@@H](O[C@@H]2O[C@H](C)C[C@H](N(C)C)[C@H]2O)[C@](C)(OC)C[C@@H](C)C(=O)[C@H](C)[C@@H](O)[C@]1(C)O` [Clarithromycin] stands 0.0542.
For `CCOc1ccccc1OCC1CNCCO1` (centres undefined) [Viloxazine hydrochloride] the value was -0.324.
With `CCCCOC(=O)c1ccc(N)cc1` [Butamben], the log worked out at 0.0286.
Under `N=C(N)NC(=O)c1nc(Cl)c(N)nc1N` [Amiloride hydrochloride dihydrate] stands -0.0656; under `O=C1NCN(c2ccccc2)C12CCN(CCCC(c1ccc(F)cc1)c1ccc(F)cc1)CC2` [Fluspirilen], 0.086.
For `CC(C)(C)C(=O)OCOC(=O)[C@@H]1N2C(=O)[C@@H](NC(=O)[C@H](N)c3ccccc3)[C@H]2SC1(C)C` [Pivampicillin] the value was 0.0303; for `COc1cc(C(=O)NS(=O)(=O)c2ccccc2C)ccc1Cc1cn(C)c2ccc(NC(=O)OC3CCCC3)cc12` [Zafirlukast], 0.0583.
Under `Cc1cc(C2CCCCC2)n(O)c(=O)c1` [Ciclopirox ethanolamine] stands -0.41; under `NS(=O)(=O)c1cc(C(=O)O)c(NCc2ccco2)cc1Cl` [Furosemide], -0.0275.
Take `CCOc1ccc2c(c1)C(C)=CC(C)(C)N2` [Ethoxyquin]: the log was -0.0194.
On to `CCOC(=O)[C@H](CCc1ccccc1)N[C@@H](C)C(=O)N1[C@H](C(=O)O)C[C@@H]2CCC[C@@H]21` [Ramipril], for which the log was 0.228.
For `NC(=O)c1ncn([C@@H]2O[C@H](CO)[C@@H](O)[C@H]2O)n1` [Ribavirin], the log stood at 0.0115.
Turning to `CC(C)COCC(CN(Cc1ccccc1)c1ccccc1)N1CCCC1` (centres undefined) [Bepridil hydrochloride], the log was 0.0781.
With `CNS(=O)(=O)Cc1ccc2[nH]cc(CCN(C)C)c2c1` [Sumatriptan succinate], the log was 0.206.
Under `CN[C@H](CC(C)C)C(=O)N[C@H]1C(=O)N[C@@H](CC(N)=O)C(=O)N[C@H]2C(=O)N[C@H]3C(=O)N[C@H](C(=O)N[C@H](C(=O)O)c4cc(O)cc(O)c4-c4cc3ccc4O)[C@H](O)c3ccc(c(Cl)c3)Oc3cc2cc(c3O[C@@H]2O[C@H](CO)[C@@H](O)[C@H](O)[C@H]2O[C@H]2C[C@](C)(N)[C@H](O)[C@H](C)O2)Oc2ccc(cc2Cl)[C@H]1O` [Vancomycin hydrochloride] stands -0.0312.
Under `NS(=O)(=O)c1cc2c(cc1Cl)N=CNS2(=O)=O` [Chlorothiazide] stands 0.0157.
For the molecule `O=S(=O)(O)CCS` [Mesna], the log amounted to 0.0221.
Under `CCn1cc(C(=O)O)c(=O)c2cnc(N3CCCC3)nc21` [Piromidic acid] stands -0.179; under `CC(C)(C)NC[C@H](O)c1ccc(O)c(CO)c1` [Levalbuterol hydrochloride], 0.0377.

Values taken from the supplement of paper PMC7024190.
